The source of these data is article PMC6619935.

Where two headings read alike, the source gives them in different places. No constants are given. Whether binding was seen depends on the method and setting. In cells and extracts the contact can be indirect. These calls come from enrichment with a bait or labelling near it, and not all partners need be listed.

Assay [1] concerns the target T1, Gpl1-TAP (S. pombe) (UniProt Q9HE07).
T1 sequence: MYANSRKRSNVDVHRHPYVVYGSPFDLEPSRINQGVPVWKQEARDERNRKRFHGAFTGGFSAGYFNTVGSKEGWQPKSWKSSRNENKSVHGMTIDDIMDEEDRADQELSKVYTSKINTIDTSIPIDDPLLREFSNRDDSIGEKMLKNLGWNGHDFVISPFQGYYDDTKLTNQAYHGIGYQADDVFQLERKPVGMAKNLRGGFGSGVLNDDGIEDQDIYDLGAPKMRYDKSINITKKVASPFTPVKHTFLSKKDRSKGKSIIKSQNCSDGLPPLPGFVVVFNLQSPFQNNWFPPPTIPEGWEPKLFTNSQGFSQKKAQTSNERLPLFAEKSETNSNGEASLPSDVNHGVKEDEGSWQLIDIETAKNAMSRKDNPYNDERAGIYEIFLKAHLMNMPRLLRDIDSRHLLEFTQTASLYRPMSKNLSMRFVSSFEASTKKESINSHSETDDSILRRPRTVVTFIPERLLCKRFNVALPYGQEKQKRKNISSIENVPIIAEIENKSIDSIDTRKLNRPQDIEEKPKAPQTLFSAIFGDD
Kind of assay: affinity purification with mass spectrometry; tandem affinity purification of TAP-tagged bait from extracts of cycling S. pombe cells (IPP150 buffer: 50 mM Tris pH 8.0, 150 mM NaCl, 10% glycerol, 0.1% NP-40); IgG Sepharose, TEV cleavage, Calmodulin Sepharose, EGTA elution; eluates analysed by LC-MS/MS.

The target in assay [2] is T1, Gpl1-TAP (S. pombe). The description is as above. The source holds these as a separate data set.

Take “Nrl1 (NRDE-2 like 1) (S. pombe (endogenous in S. pombe cells))”: in the assay with Gpl1-TAP (S. pombe) [1], the binding entry was “binds”.

B1: SPAC20H4.09 (protein, UniProt Q9HE06 1-647)
chain: MPNEFISQSLSTLTNTPLNIQKKLLPITKYRNQLLYAVEQNQITIVLGHTGCGKTTQIPQFLYEAGWASQNGIIGCTQPRRLVAKSVSERVSLELNSPPGSLCGYSIQFDHNVSEKTKIKYMTDGILLNEIFFDPLLERYSIVILDEVHERTLSTDLLLGVLKRILEKRNDFRLVLSSASVDANKLSQFFGQDKVCTMSIEGKLFPVETLFLQKPTENYVDSAIETVININSTYPPGDILVFLSGRKEIEYCIKKIEDSLIHASEDCQTLVPLPLHAGLTVDEQMRVFNIYDGDFRKVIFSTNIAETSITIDGIVYVVDSGFNKQRIYNPYTRTSKLINVPISKSSAIQRSGRAGRTMRGKVFRLYTEKAYSLMKEEFEADILNCDMSPLVLFLKGLGLKNILQFPFFVRPPTVHLMAALEDLYLLGVLDESGNLTDPLGIQISNSFLDANISKALLTSNQFGCTHEILSIASILTAGEVFYNPTSSSKNDAFVAHSSFFANEGDIITALNVFESFVGNKKDLQWCRKNYLNYQTLRQALDIRTHLVRFLNKFSIPTAQRLPSSDCSKILKCLLDGFVRNVAHLQNDGSYKTIGGKQVWLDSSSVLHEKKTPWIMYSSAVESETQIFVKNISKIESFWLDKYYKREK
In the case of B1, the binding entry in the assay with Gpl1-TAP (S. pombe) [2] is on record as “binds”.
